In PubChem BioAssay AID1794845 (National Center for Advancing Translational Sciences (NCATS), 2023):
Among all 6,900 compounds or so, fewer than 10 were called active. Calls follow the shape of the dose curve; as a rule, active = well fitted curve in the direction sought with a large enough effect; inconclusive = small, poorly fitted or top-dose-only effect, or another doubt; inactive = no such curve, though single readings can be large or run the other way. Some of the results follow.

Sequences of proteins named here, by UniProt entry; tags and fusion partners are left off. A change or cut given only in a name is not applied to a line headed by its entry.
UniProt C7C422: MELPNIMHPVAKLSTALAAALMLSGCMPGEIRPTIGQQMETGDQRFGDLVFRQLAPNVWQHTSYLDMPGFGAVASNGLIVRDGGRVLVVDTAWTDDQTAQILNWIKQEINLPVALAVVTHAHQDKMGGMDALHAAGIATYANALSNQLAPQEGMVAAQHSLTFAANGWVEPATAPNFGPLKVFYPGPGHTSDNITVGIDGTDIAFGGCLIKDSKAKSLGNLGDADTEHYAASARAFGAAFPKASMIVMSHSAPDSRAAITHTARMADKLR

Each molecule was assayed against Metallo-beta-lactamase type 2 (Klebsiella pneumoniae) (UniProt C7C422) (assay: qHTS to identify inhibitors of the New Delhi Metallo-beta-lactamase (NDM): primary screen against the NCATS Gemini Collection). Conditions: NDM-1 enzyme, meropenem hydrolysis, absorbance 300 nm; at 38.4 µM (top of the series) unless noted.
Source text: Assay Submitter (PI): James Inglese Ph.D., Patricia Dranchak Ph.D., Mahesh Aitha Ph.D. Assay Development and Screening Technology Laboratory (ADST) National Center for Advancing Translational Sciences (NCATS), Rockville, MD National Institute of Health (NIH), Bethesda, Maryland The metallo-beta-lactamases (MBL) are a main antibiotic resistance mechanism evolved by bacteria. There is an urgent clinical need for MBL inhibitors to mitigate this growing threat. To support a machine-based learning study, qHTS has been used to experimentally test inhibitors identified by prediction tools.
PROTOCOL TABLE (as described by Inglese et al., 2007) SEQUENCE No. (e.g., 1, 2, 3, etc.); […] (e.g., enzyme, Incubation, Reagent, etc.); VALUE; DESCRIPTION 1; NDM-1; 4 uL of 3 nM enzyme [2 nM final] in 50 mM HEPES (pH 7.0), 1 uM […], 0.01% Tween20; Use BioRaptr to dispense into Aurora black, clear bottom low base 1536-well plates 2; Compounds; 23 nL; Use Pin Tool (Wako) to transfer DMSO control and library compounds in DMSO 3; Incubate; >30 min 4; Reagent; 2 uL of 150 uM meropenem [50 uM final] 5; Incubate; 30 min. 6; Detector; Absorbance at 300 nm (bandwidth = 5 nm, 25 flashes/well) on Tecan Infinity NOTES (numbers refer to sequence above) 1; Column 1 of each plate received assay buffer without enzyme and columns 2-48 received enzyme for a final assay concentration of 2 nM. 2; Control plate contained DMSO in columns 1, 2, 3, and 4. 3; Compound interaction with enzyme. 4; Meropenem substrate was prepared in the same assay buffer as step 1 for a final assay concentration of 50 uM and added to all wells across the assay plates. 5; Substrate interaction with enzyme, plateau phase of kinetics. 6; Default reader settings were applied for absorbance read at 300 nm, bandwidth = 5 nm, 25 flashes/well. References: Inglese J, Shamu CE, Guy RK. 2007. Reporting data from high-throughput screening of small-molecule libraries. Nat Chem Biol. doi:10.1038/nchembio0807-438 Yasgar A, Shinn P, Jadhav A, Auld D, Michael S, Zheng W, Austin CP, Inglese J, Simeonov A. 2008. Compound Management for Quantitative High-Throughput Screening. J Lab Autom 13:79 - 89. doi:10.1016/j.jala.2007.12.004
Also: % of control where 0% means no effect.

Activity % (negative = inhibition), inactive:
Cc1cccc(C2CCCN(C(=O)c3cn(CCc4ccccc4)nn3)C2)c1 (centres undefined) -1.32%
CCc1nncn1C1CCN(C(=O)c2cc(-c3cccs3)[nH]n2)C1 (centres undefined) 4.15%
COc1ccc(C(=O)NC[C@H]2O[C@@H](CC(=O)N3CCN(c4ccccc4)CC3)[C@H](O)[C@@H]2O)cc1 13.5%
COc1cccc(CN2CCOC3CCN(Cc4ccccc4Cl)CC3C2=O)c1 (centres undefined) 7.56% [at 57.5 µM]
Cn1nc(C(=O)N2CCCC(CN3CCOCC3)CC2)c2ccccc21 (centres undefined) 2.41%
COc1nc(C)c(C(=O)NC2CC(c3cc(=O)[nH]c(C)n3)C2)s1 (centres undefined) -0.677%
Cc1cn2nc(C(=O)NC3CCCC3)cc2c(N2CCSCC2)n1 48.6%
CC(c1cccs1)N(C)C(=O)c1ccccc1Cl (centres undefined) 11.2% [at 57.5 µM]
COCCc1noc(CNC(=O)C2COc3ccccc3C2)n1 (centres undefined) 6.51%
COCCN1CCCC2(CCN(C(=O)CN3C(=O)CNC3=O)C2)C1=O (centres undefined) 23.7%
OC1(CN2CCC(c3nc(-c4ccccc4)no3)CC2)CNCCOC1 (centres undefined) 1.84%
COCCC1(CO)CCCN(C(=O)CCc2c(C)noc2C)C1 (centres undefined) 1.33%
CCc1nccc(-c2c(-c3ccccc3)ncn2CC(O)c2ccccc2)n1 (centres undefined) 0.0694%
COC(=O)[C@H](NC(=O)[C@@H]1C[C@H](NC(=O)Nc2ccc(OC)cc2)CN1C(=O)C=C(C)C)C(C)C 1.06%
O=C(c1ccccc1F)N1CCC(N2Cc3ccccc3C2=O)CC1 6.11%
O=C1CCCCC(Cc2ccccc2)(C(=O)NCc2ccc(F)cc2)N1 (centres undefined) -11.7%
O=C(c1cc(-c2ccc(F)cc2)n[nH]1)N1CC2CC(C1)[C@H]1CCCC(=O)N1C2 (some centres undefined) -2.41%
O=C1N(CC2CC2)CCCC12CCN(S(=O)(=O)N1CCOCC1)C2 (centres undefined) 64.4%
CCCNC(=O)N1CCCC2(CCC(=O)N(Cc3cnc(C)cn3)C2)C1 (centres undefined) 2.67%
Cc1ccc(CN2CCn3c(nnc3[C@@H]3C[C@@H](O)CN3Cc3cccnc3)C2)s1 0.15%
O=C([C@@H]1Cc2nc[nH]c2CN1Cc1ccc(C(F)(F)F)cc1)N1CCOCC1 1.7% [at 57.5 µM]
Cc1cnc(CCNC(=O)Nc2ccc3c(c2)OCCO3)n1C1CCC1 43.7%
CNC(=O)[C@@H]1CN(C(=O)Cc2cc(C)no2)C[C@H]1COC 5.89%
COc1ccc2[nH]c(C[C@@H]3C[C@@H](C(C)C)[C@H](CNC(=O)c4cccnc4)C=C3C)nc2n1 51.4% [at 57.5 µM]
CCCS(=O)(=O)Nc1ccc([C@H]2OCC(=O)N(CC(=O)N(C)C)[C@@H]2CO)cc1 17.5% [at 57.5 µM]
Cc1nc(CN2CCOc3cc([S+](=O)([O-])Nc4ccccc4)ccc3C2)cs1 1.72% [at 57.5 µM]
CCn1cc(CN(C)Cc2ccccc2)ccc1=O 8.06%
Cc1noc(C)c1CN[C@@H]1CCC[C@@H](C(=O)N2CCN(C)CC2)CC(=O)N(C)C1 -2.64% [at 57.5 µM]
O=C(Cc1cccnc1)N1CCC2(CC1)CC(CCOc1ccc(F)cc1)CCO2 (centres undefined) 0.0542%
CC(C)N1C(=O)C2(CCCC2)C1C(=O)NCCCN1CCc2ccccc2C1 (centres undefined) -4.17%
O=C(c1nc2ccccc2n(C2CCCC2)c1=O)N1CCCC1 -0.57% [at 57.5 µM]
CCN1CCN(C(=O)C2CCc3nnc(-c4cccc(C(F)(F)F)c4)n32)CC1 (centres undefined) -2.08%
CS(=O)(=O)N(Cc1cccnc1)C1CN(C(=O)CCc2c[nH]c3ccccc23)C1 44.6%
COCCNc1cc(-c2ccc3ccccc3n2)c2cc[nH]c2n1 3.93%
CCCN1CCC(N2CCCC(Cc3ccccc3)(C(=O)OCC)C2)CC1 (centres undefined) -3.78%
COc1ccccc1CNC(=O)C[C@@H]1c2nc(-c3cccnc3)sc2C[C@@H]2[C@](C)(CO)[C@H](O)CC[C@]21C 0.0251%
COc1cccc(CN2CCCCC2c2nc(CCOCC3CCOCC3)no2)c1 (centres undefined) -0.867%
Cc1ccc2nc(CO[C@H]3CN(C4CCN(C)CC4)C[C@H]3F)[nH]c2c1 6.47% [at 57.5 µM]
COc1ccc(NC(=O)C2CCN(C(=O)c3ncn4c3COC(c3ccccc3)C4)CC2)cc1Cl (centres undefined) 24.2%
NS(=O)(=O)c1ccc(F)c(C(=O)NCCSc2ccccn2)c1 2.3%
COc1ccc(-c2cc3nc4c(c(=O)n3[nH]2)CN(C(=O)CN(C)S(=O)(=O)c2cnc[nH]2)CC4)cc1 9.73%
Cc1ccc([S+](=O)([O-])N2CCCC2C(=O)N2CCC3(CC2)CC(=O)Nc2ccccc2O3)cc1 (centres undefined) 20.3%
Cc1cc(F)ccc1NC(=O)CCC1CCCN(C(=O)CC2=CCCCC2)C1 (centres undefined) 1.37%
CCCC1=Nc2cc(C(=O)NCCCN3CCCCC3CC)ccc2Sc2ccc(C)cc21 (centres undefined) -0.812%
Cc1cccc(C(C(=O)N2CCN(Cc3noc(C)n3)CC2)N(C)C)c1 (centres undefined) -7.52%
O=C(Cc1ccccc1)NCc1ccnc2[nH]ccc12 4.52% [at 57.5 µM]
COc1ccc(-c2noc(-c3nc(-c4ccc(N(C)C)cc4)no3)n2)cc1OC 8.38%
O=C(CN1CCCc2nc(-c3ccncc3)ncc2C1=O)NCc1cc(F)ccc1F 0.922%
CC(C)CCN1CC2(CCCN(C(=O)c3ccn(C)c(=O)c3)C2)CCC1=O (centres undefined) 9.09%
OCC(O)c1cc2n(n1)CCN(Cc1ccccc1Cn1cccn1)C2 (centres undefined) -1.97%
CN(C)CC1(O)CCN(C(=O)Cn2cc(C(=O)C3CC3)c3ccccc32)C1 (centres undefined) 69.4%
O=C(CCn1cncn1)N1CCC(c2nccn2Cc2cccnc2)CC1 -1.12%
Cc1ccccc1CCN1CCC(CN(C(=O)c2ccoc2C)C2CCCC2)CC1 -3.03%
CNC(=O)[C@@H]1CN(C(=O)c2conc2C)C[C@H]1COC 5.97%
NC(=O)c1cccc(CN2CCCC3(Cc4ccccc4N(C(=O)c4ccc(Cl)cc4)C3)C2)c1 (centres undefined) 4.26%
CNC(=O)[C@@H](C1CC1)N1CCC[C@H]1C(=O)NCc1cccnc1 24.8% [at 57.5 µM]
CCOC(=O)c1cn(C2CN(S(=O)(=O)c3ccc(C)c(C)c3)C2)nn1 -0.484%
Cn1ncc2c(C(=O)NC3CCCCCC3)cc(C(C)(C)C)nc21 16.2% [at 57.5 µM]
Cc1ncoc1C(=O)N1C[C@@H](COCC2CC2)[C@H](c2ccccn2)C1 -0.784%
Cc1cccc(CN2CCc3nnc([C@@H]4C[C@@H](O)CN4C)n3CC2)c1 3.58%
NC(=O)CN1CCC(c2nc(-c3cn4ccccc4n3)no2)CC1 -2.18%
CC(C)CC(N)c1nnc2n1CCNCC2 (centres undefined) 21.9%
COc1cccc(-c2ccc3c(n2)CNC(=O)CO3)c1 28% [at 77.1 µM]
COC1CCC12CCN(C(=O)c1ccc(C)s1)CC2 (centres undefined) 2.68%
COc1cccc(S(=O)(=O)N2CC(Oc3ccccc3-c3noc(C)n3)C2)c1 11.3%
Cc1nn(C)c(C)c1S(=O)(=O)N1CCC2(CC1)CC(N(C)Cc1ccccc1)CCO2 (centres undefined) 1.55%
CC1(C)C[C@H](NCc2ccc(CO)o2)[C@@]2(CCC(=O)N3CCOCC3)CC[C@](C)(O)C[C@@H]12 -0.742%
CC(C)CN1C(=O)C(C)(C)[S+](=O)([O-])[C@@H]2CN(c3ccc(OC(F)(F)F)cc3)C[C@@H]21 4.57%
COCCN(CC1CCN(Cc2ccccc2F)CC1)C(=O)c1cc[nH]c1C 0.4%
O=C(c1ccc2ccccc2n1)N1CCc2nnc(CCc3ccccc3)n2CC1 2.22%
Cc1ncccc1OC1(C(=O)N2CCCC2c2nc(C(C)C)no2)CCNCC1 (centres undefined) 0.544%
COc1cc(OC)cc(C(=O)N2CCC(c3nc(C4CCOC4)no3)CC2)c1 (centres undefined) 5.07%
CC1CCCN1C(=O)c1cc(-c2ccc(C(F)(F)F)cc2)nc2c1cnn2C (centres undefined) 15.8%
CC(C)(C)c1nc(C(=O)NCc2cccnc2)n2ccncc12 1.05%
Cn1nc2n(c1=O)CCC(NS(=O)(=O)c1cccnc1)CC2 (centres undefined) 6.88%
CN(Cc1ccccc1)c1ncnc2c1CCN(C(=O)[C@@H](N)CO)CC2 0.912%
COCC(=O)N(C1CCOCC1)C1CCN(C(=O)Cc2ccc(Cl)cc2)CC1 -1.71%
CC(C)(C)NC(=O)N1CCC(c2nnc3n2C(C(=O)NCC2CCCCC2)CC3)CC1 (centres undefined) 6.52% [at 57.5 µM]
O=C(N[C@H]1CCN2C(=O)[C@@H](Cc3c[nH]c4ccccc34)NC(=O)[C@H]12)c1cnccn1 3.9% [at 57.5 µM]
Cc1cc(CN2CCC3(CC2)CCN(Cc2cscn2)CC3CO)on1 (centres undefined) 14.6%
Cc1nc(C2CC23CCN(S(=O)(=O)c2cccc(F)c2)CC3)no1 (centres undefined) 6.28%
CCCNC(=O)N1CCCCCC1CN1CCCC1 (centres undefined) 39.7%
COc1cccc(N2CCN(C(=O)C3CCCN(c4cnc5nccnc5c4)C3)CC2)c1 (centres undefined) 2.12%
C=CCNC(=O)C(NC(=O)c1ccc(OC)cc1)C1CCN(C(=O)CCc2ccccc2)CC1 (centres undefined) 29.3%

Filtered by structure, the compounds so far containing a thiophene ring, fused or not
Activity % (negative = inhibition), inactive:
CCc1nncn1C1CCN(C(=O)c2cc(-c3cccs3)[nH]n2)C1 (centres undefined) 4.15%
CC(c1cccs1)N(C)C(=O)c1ccccc1Cl (centres undefined) 11.2% [at 57.5 µM]
Cc1ccc(CN2CCn3c(nnc3[C@@H]3C[C@@H](O)CN3Cc3cccnc3)C2)s1 0.15%
COC1CCC12CCN(C(=O)c1ccc(C)s1)CC2 (centres undefined) 2.68%
